Results: paper PMC3415457, “Cohesin Rings Devoid of Scc3 and Pds5 Maintain Their Stable Association with the DNA” (PLoS Genetics, 2012)
No constants are given. Whether binding was seen depends on the method and setting. In cells and extracts the contact can be indirect. Some results given as binding are weak or reduced against the parent protein; the word gives no strength. Tags and fused reporters may be left off the sequences shown.

T1: Smc3-TAP (S. cerevisiae (budding yeast)) (UniProt P47037)
T1 sequence: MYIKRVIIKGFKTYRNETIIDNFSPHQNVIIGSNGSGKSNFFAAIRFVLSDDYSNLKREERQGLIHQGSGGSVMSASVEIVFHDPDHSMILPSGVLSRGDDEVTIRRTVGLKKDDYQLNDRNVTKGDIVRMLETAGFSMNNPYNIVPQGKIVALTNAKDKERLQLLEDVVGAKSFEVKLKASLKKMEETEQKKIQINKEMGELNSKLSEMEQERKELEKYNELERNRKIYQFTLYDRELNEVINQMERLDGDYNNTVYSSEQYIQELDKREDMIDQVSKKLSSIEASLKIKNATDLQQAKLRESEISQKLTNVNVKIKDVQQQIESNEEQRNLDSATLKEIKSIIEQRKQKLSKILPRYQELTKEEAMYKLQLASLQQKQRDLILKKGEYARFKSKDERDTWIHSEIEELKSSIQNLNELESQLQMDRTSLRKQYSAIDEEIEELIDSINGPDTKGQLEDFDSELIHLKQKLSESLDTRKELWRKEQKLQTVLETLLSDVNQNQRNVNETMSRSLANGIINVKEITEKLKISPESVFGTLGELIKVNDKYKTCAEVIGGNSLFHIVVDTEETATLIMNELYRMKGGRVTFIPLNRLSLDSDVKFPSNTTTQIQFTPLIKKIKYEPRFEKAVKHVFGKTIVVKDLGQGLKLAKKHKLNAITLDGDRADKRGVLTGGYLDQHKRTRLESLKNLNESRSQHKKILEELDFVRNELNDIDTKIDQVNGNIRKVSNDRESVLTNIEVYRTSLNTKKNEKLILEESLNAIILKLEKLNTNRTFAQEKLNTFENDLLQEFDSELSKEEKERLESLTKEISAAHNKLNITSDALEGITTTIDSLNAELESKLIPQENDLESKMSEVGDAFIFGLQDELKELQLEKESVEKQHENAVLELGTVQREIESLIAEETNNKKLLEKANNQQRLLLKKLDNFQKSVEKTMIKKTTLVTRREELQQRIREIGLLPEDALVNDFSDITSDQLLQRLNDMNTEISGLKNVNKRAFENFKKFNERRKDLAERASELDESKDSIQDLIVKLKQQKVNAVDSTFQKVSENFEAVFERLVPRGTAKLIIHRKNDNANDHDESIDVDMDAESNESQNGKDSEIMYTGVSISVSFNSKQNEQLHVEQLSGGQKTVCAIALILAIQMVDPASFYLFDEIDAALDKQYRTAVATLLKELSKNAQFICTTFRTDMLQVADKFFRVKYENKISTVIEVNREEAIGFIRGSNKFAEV

T2: Scc1-TAP (S. cerevisiae (budding yeast)) (UniProt Q12158)
T2 sequence: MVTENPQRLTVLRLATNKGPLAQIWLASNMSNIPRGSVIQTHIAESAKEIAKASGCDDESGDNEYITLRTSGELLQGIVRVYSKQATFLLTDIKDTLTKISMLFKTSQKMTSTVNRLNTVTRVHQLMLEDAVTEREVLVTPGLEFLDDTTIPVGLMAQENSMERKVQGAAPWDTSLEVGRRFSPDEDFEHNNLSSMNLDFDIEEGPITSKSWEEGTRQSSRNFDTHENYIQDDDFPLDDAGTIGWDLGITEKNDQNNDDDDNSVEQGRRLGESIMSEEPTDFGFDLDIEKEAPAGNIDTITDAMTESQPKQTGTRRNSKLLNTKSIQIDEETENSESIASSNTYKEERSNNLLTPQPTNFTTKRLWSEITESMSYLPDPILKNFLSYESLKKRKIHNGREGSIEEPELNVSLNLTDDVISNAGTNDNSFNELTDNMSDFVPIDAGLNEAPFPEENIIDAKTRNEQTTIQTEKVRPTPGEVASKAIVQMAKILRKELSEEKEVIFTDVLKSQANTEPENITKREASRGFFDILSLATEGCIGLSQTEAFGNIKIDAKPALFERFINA


Columns and labels:
[1] = biological target: T1, Smc3-TAP (S. cerevisiae (budding yeast)); assay: co-IP; lysates of nocodazole/benomyl arrested yeast on IgG Sepharose to precipitate Scc1-TAP or Smc3-TAP; washes up to buffer I/150 mM potassium acetate; blot with anti-MYC; Scc3 tested in PDS5-degron strains, Pds5 in SCC3-degron strains
[2] = biological target: T2, Scc1-TAP (S. cerevisiae (budding yeast)); assay: as above
[3] = biological target: T1, Smc3-TAP (S. cerevisiae (budding yeast)); assay: co-IP; lysates of nocodazole/benomyl arrested yeast on IgG Sepharose to precipitate Scc1-TAP or Smc3-TAP; higher salt washes omitted (three times buffer I, two times buffer I/100 mM potassium acetate); blot with anti-MYC for Wpl1; wild type strains (less Wpl1 in SCC3-degron strains)
[4] = biological target: T2, Scc1-TAP (S. cerevisiae (budding yeast)); assay: as above
[5] = biological target: T1, Smc3-TAP (S. cerevisiae (budding yeast)); assay: co-IP; as for Wpl1 in the wild type (higher salt washes omitted), but PDS5-HA6-degron strains depleted of Pds5
[6] = biological target: T2, Scc1-TAP (S. cerevisiae (budding yeast)); assay: as above

Binder | binding [1] | binding [2] | binding [3] | binding [4] | binding [5] | binding [6]
Scc3-MYC18 (protein, UniProt P40541 1-1150) MTAVRRSTRIRTKSQVIEEDYDDEQNTSAQHVESDKITAKTQHEEEEEQDTGESEESSSEDDYEDQDDDDYVDTATAKRKSRKRKPKSASNTSSKRQKKKPTSAQKSAVSHAPAYHRSKKDQDQYLEIAKDFQPTELFDILSTSEDVSIEELLREWLETYSENRDKFLQEFINLLLNCCGSVARVEDHDVHSNESSNETIGEIQLLFQRQKLHEFYLLISKENKKRKNFKMGPLYQNFAEFMTKLLEVANDLQLLYVESDEDDTQIVTGNLVLDLLTWLSSFSVCKIRCFRYISTLTLYLFQDYLTQQAVNLEKNYLAKLSKQLSLEEKKKRPNNKTLEKLESTIAETQGSKVVIDSIIDNIVKLCFVHRYKDVSDLIRSESMLHLSIWIKNYPEYFLKVTFLKYFGWLLSDNSVSVRLQVTKILPHLIIQNHNSKSTDNSAIRQVFERFKTKILEVAIRDVNLDVRIHSIQVLTEASSLGYLDDSEILIISSLMFDEEFDPFKTSSFNKRSKFLSTVAKFLARVIKEKFDEFIKTHEDLPKEVDGLEVGPVVQVGIFIKILNDSLIYHLKDCAEVDSRTKIRMLTQAAEFLSPYISTHLKTICNLLISDTESNELIQKLQNSANNNSDDEDVDDEELDITPLFPIDRNSTILYLNVFHGLCAGANNPKIQTKDSVKEIVLPLFYDLLNAASIESADILCPLLESFITFSLDDWISIGYETELKKITDKTIKAFMDSTIGNSKVDMKYDIFAKFIHHIHHFEKKELQEKFLNQIATLKIHLKKFLQEKMDPNNSRDDYKDLTCSLYELYINKLTILGRDYPIEVDEELLQLFLNNFVSRIPIMFQDFDDSTAQEINFKMLVLLATWNLEKWREIIEKVRDYENSISKDLRSVWKPIAAIIGRLNTLVISLAATNETFENINSLFYLKWSACTSLMDIIVAIKIFELKLPADATTWRYSMSEQFPFYLHDNASKVLLKIFLYLESLFAKQVDVQLERVADEDANLNDLPETGFFENIETEFLLFTVKLKGLMKLNILDERFASRVALNKEKLGPLFKKIVDDTIMENPEPNKKNIQKAKSNQTQREKAPLQPNSERETDHANTENNDPDIPMTIDLEPIEESSQNNSELAPIEEHPTVVDAIDNSDEITQD | binds | binds | – | – | – | –
Pds5-MYC18 (protein, UniProt Q04264 1-1277) MAKGAVTKLKFNSPIISTSDQLISTNELLDRLKALHEELASLDQDNTDLTGLDKYRDALVSRKLLKHKDVGIRAFTACCLSDILRLYAPDAPYTDAQLTDIFKLVLSQFEQLGDQENGYHIQQTYLITKLLEYRSIVLLADLPSSNNLLIELFHIFYDPNKSFPARLFNVIGGILGEVISEFDSVPLEVLRLIFNKFLTYNPNEIPEGLNVTSDCGYEVSLILCDTYSNRMSRHLTKYYSEIIHEATNDDNNSRLLTVVVKLHKLVLRLWETVPELINAVIGFIYHELSSENELFRKEATKLIGQILTSYSDLNFVSTHSDTFKAWISKIADISPDVRVEWTESIPQIIATREDISKELNQALAKTFIDSDPRVRRTSVMIFNKVPVTEIWKNITNKAIYTSLLHLAREKHKEVRELCINTMAKFYSNSLNEIERTYQNKEIWEIIDTIPSTLYNLYYINDLNINEQVDSVIFEYLLPFEPDNDKRVHRLLTVLSHFDKKAFTSFFAFNARQIKISFAISKYIDFSKFLNNQESMSSSQGPIVMNKYNQTLQWLASGLSDSTKAIDALETIKQFNDERIFYLLNACVTNDIPFLTFKNCYNELVSKLQTPGLFKKYNISTGASIMPRDIAKVIQILLFRASPIIYNVSNISVLLNLSNNSDAKQLDLKRRILDDISKVNPTLFKDQIRTLKTIIKDLDDPDAEKNDNLSLEEALKTLYKASKTLKDQVDFDDTFFFTKLYDFAVESKPEITKYATKLIALSPKAEETLKKIKIRILPLDLQKDKYFTSHIIVLMEIFKKFPHVLNDDSTDIISYLIKEVLLSNQVVGDSKKEIDWVEDSLLSDTKYSAIGNKVFTLKLFTNKLRSIAPDVPRDELAESFTEKTMKLFFYLIASGGELISEFNKEFYPTPSNYQTKLRCVAGIQVLKLARISNLNNFIKPSDIIKLINLVEDESLPVRKTFLEQLKDYVANELISIKFLPLVFFTAYEPDVELKTTTKIWINFTFGLKSFKKGTIFERALPRLIHAIAHHPDIVGGLDSEGDAYLNALTTAIDYLLFYFDSIAAQENFSLLYYLSERVKNYQDKLVEDEIDEEEGPQKEEAPKKHRPYGQKMYIIGELSQMILLNLKEKKNWQHSAYPGKLNLPSDLFKPFATVQEAQLSFKTYIPESLTEKIQNNIKAKIGRILHTSQTQRQRLQKRLLAHENNESQKKKKKVHHARSQADDEEGDGDRESDSDDDSYSPSNKNETKKGHENIVMKKLRVRKEVDYKDDEDDDIEMT | binds | binds | – | – | – | –
Wpl1-MYC18 (protein, UniProt Q99359 1-647) MRAYGKRGPVLRTPFRSNKGLPSSSDVEFSDDDVNSVIPDVSSTISSSIADHPIEGLLDEPRKAQDSSSSFDGANEKPSSQLDSKRNDQNVKIITSSDTSMAFMKDEKLSAFNFLDGSKASKRKRRRTYQKHDANITSSIEPDVQDEDSITMHNEFESIRKIYNDINEFILKLPRADDDILNKMLENEMKMDDSIENNSIRTSKDKKYGKFRTILINKNKENEIMGEEVDQKANTLSLNNADNSNAEKEGLTSTNHYNELKNMGDTIKYQDDIEFLLSNSKSNDNTTVPINEYFKKLLNLSLMIINDEEFFQYAKRYFKKEIIKLSFAQFRSDFPELILLQGYLLHKVSESQSDFPPSFDNFSIELSKDDGKIRTKKNKHIKKLSHLNFEDFLRKTQFKTGLYYSLSLWEMHGNLSLDIIKRISILASNKDLFSRHVKTFIPLLEKLITASEFCHMYIEQPEMFDSLISNLNNQFKDMLDDDSLIKILILLTNMEVHNYTLWKEADMIFQSSMNTILESIHPLTDAKVDNILLHLGLCLNICSRENSRLKLDGKLWYDMKTIFVKMIRDGSDTENRLVQGLFYLNFSFLIKQRKENSNLDPGELNLLLVELEAFKSETSQFNEGISNKIEIALNYLKSIYTSERITI | – | – | binds | binds | binds weakly | binds weakly
